For at least one entry, the source does not settle the construct or the ends of the probe.
Key:
bZIP73Jap + bZIP71 = experiment: EMSA; conditions: bZIP71 promotes the bZIP73Jap interaction; Chemiluminescent EMSA Kit (Beyotime), standard protocol; pH and temperature not stated; recombinant protein; protein details: GST (pGEX4T-3),GST (pGEX4T-3)
[1] = test system: bZIP73Jap (Oryza sativa subsp. japonica cv. Nipponbare); experiment: EMSA; conditions: Chemiluminescent EMSA Kit (Beyotime), standard protocol; pH and temperature not stated; recombinant protein; protein details: GST (pGEX4T-3)

Sequence: CGCGTCGCCCTGCCTCCCCCCGGAGCGCACCACGTGGGCACCCAACCCCCTCTCCCAGCCCAAAGCAAAT (double strand) [OsNCED3 G-box probe]
- binding result (bZIP73Jap + bZIP71): binds
- binding result [1]: binds

Sequence: TCCGGCGAATCCACCACGTGGTCTCCTCTCCCAACTTCACCTCCTCCTCTTCCCCCCTCCTCCCTCTCCT (double strand) [OsNCED5 G-box probe]
- binding result (bZIP73Jap + bZIP71): binds
- binding result [1]: binds
